# Screening data, single-dose tests

Amino acid sequences for entries named in this document (tags omitted). Residues count along the entry.
UniProt A4I591, 1-473: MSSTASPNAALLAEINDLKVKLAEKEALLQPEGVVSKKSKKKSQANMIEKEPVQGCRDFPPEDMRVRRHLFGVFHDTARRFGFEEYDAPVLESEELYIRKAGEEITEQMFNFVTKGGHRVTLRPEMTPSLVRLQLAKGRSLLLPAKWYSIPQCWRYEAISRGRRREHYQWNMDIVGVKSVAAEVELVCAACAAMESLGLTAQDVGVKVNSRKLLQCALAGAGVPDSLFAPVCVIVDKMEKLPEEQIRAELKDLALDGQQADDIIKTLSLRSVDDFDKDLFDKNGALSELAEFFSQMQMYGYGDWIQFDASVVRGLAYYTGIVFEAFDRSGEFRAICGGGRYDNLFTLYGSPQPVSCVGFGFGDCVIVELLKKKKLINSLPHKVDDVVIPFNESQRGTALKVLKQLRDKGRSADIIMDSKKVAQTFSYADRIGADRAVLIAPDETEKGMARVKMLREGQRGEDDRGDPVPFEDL

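Enzyme assay of histidyl-tRNA synthetase; the read-out is not stated. Target: Histidine-tRNA ligase, Leishmania infantum (UniProt A4I591). Tested at 30 µM. Direction is inferred from retests: higher values go with stronger inhibition. The assay is labelled LdHisRS but filed under L. infantum. Of about 69,000 compounds tested this way, about 410 (0.6%) reached 50% or more in at least one test.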

Each number is a percent effect as filed. How 0% and 100% were set is not recorded. Most values in the screen are low, and negative values occur. Compounds were drawn at random from those tested, without regard to their results.

| Compound | Percent Effect |
|---|---|
| `O=C(CNCc1ccccc1Cn1cccn1)Nc1cnccn1` | 16.78% |
| `Cc1cc(C)c(CNC(=O)N(C)Cc2ccc3c(c2)OCO3)c(=O)[nH]1` | 7.895% |
| `Cc1c(C(=O)NCC2CCN(C)C2)n(C)c2c(C)cccc12` (stereo not given) | 7.317% |
| `Cc1cccc(C)c1NC(=O)CCNC(=O)c1ccoc1` | 18.67% |
| `CCc1nnc2ccc(NCC3(O)CCOCC3)nn12` | 5.882% |
| `c1cnnc(NCC2CN(CCN3CCCCC3)CCO2)c1` (stereo not given) | 8.219% |
| `CCN1CC(CN(C)Cc2nc(-c3ccc(C)o3)oc2C)CC1=O` (stereo not given) | 10.2% |
| `Cc1cc(C(=O)N(C)C)nc(C2(C)CCCN2c2ccccc2)n1` (stereo not given) | 14.49% |
| `O=C(NCc1ccccc1CN1CCCC1)Nc1nncs1` | 16.67% |
| `Cc1nc(C2CCNCC2)cc(N(C)Cc2cc3cc(F)ccc3[nH]2)n1` | -2.597% |
| `O=C(NCc1cc[nH]n1)NCC(c1ccccc1)N1CCOCC1` (stereo not given) | -5.505% |
| `N#Cc1ccc(CC(=O)N2CCC(Nc3cccnn3)CC2)cc1` | 15.79% |
| `Cc1nc(NCc2cccnc2)c2c(n1)c(C)nn2C` | -14.15% |
| `CCc1nnc2n1CCN(Cc1nnc(-c3occc3C)o1)C2` | 10.34% |
| `COC(=O)N1CCc2ccccc2C1C(=O)NCc1ccncc1` (stereo not given) | 17.39% |
| `CN(Cc1ccc2c(c1)OCO2)Cc1nc(Cc2ccccc2)no1` | 3.03% |
| `Cn1ccnc1-c1ccccc1C(=O)N1CCc2c(nc(N)[nH]c2=O)C1` | 17.92% |
| `O=C(Nc1ccc(CC(=O)N2CCSCC2)cc1)NC1CCCC1` | 13.7% |
| `CC(c1c(F)cccc1F)N1CCN(Cc2nccn2C)CC1` (stereo not given) | -7.143% |
| `COc1cccc(CC2(CO)CCCN(c3nccs3)C2)c1` (stereo not given) | 24.71% |
| `CC1CCCCN1C(=O)c1nc2c(n1C(C)C)CCN(C(=O)C1CC1)C2` (stereo not given) | 8.621% |
| `CN(Cc1ccc(-n2cccn2)cc1)Cc1cnc(N(C)C)nc1` | 6.452% |
| `O=C(NCc1ccccn1)[C@@H]1COC[C@H]2CN(C3CCC3)C[C@H]21` | 18% |
| `Cc1oc(NC(=O)C(C)N2CCN(CCO)CC2)c(C#N)c1C` (stereo not given) | 12.82% |
| `O=C(O)c1cc(NS(=O)(=O)c2cccc(Cl)c2F)ccc1Cl` | -5.479% |
| `Cc1ccc(CN(Cc2ccccn2)C(=O)[C@H]2CC[C@@H](N)C2)s1` | 12.8% |
| `CCCS(=O)(=O)CC(=O)NC(C)c1cccc(-n2cccn2)c1` (stereo not given) | 9.244% |
| `CN(C)C(=O)Cn1c(C2CC2)c(CN2CCOCC2)c2cccnc21` | 15.6% |
| `CCN1CCN(C2CCN(Cc3nc4ccccc4o3)CC2)C1=O` | 16% |
| `COc1cc(C(=O)N2CCCC(CNS(C)(=O)=O)C2)cc(OC)c1C` (stereo not given) | 38.1% |
| `Cc1cncc(Oc2ccc(CN)cc2)n1` | 12.5% |
| `CN1C(=O)COc2ccc(NC(=O)CCc3nc4cccnc4[nH]3)cc21` | 12.36% |
| `CCc1nnsc1C(=O)NC1CCN(c2ccccn2)CC1` | 13.21% |
| `COCCO[C@H]1CCN(C(=O)c2ccc[nH]2)[C@H]1Cc1ccncc1` | 5.109% |
| `Cc1cc(N2CCC3(CCCN(CCO)C3=O)C2)nc2ccccc12` (stereo not given) | 8.434% |
| `CCn1c(CN(C)CC(=O)N(C)C)nc2c(F)cccc21` | 7.018% |
| `CCCc1nnc2sc(C3CCS(=O)(=O)CC3)nn12` | -43.36% |
| `CC(C)(O)c1cn(C2CCN(C(=O)CCC(F)(F)F)CC2)nn1` | 12.5% |
| `Cn1ncc(Cl)c1C(=O)N1CCc2nc3sccc3c(=O)n2CC1` | 2.069% |
| `CC(C)(C)CC(=O)NC(C)(C(N)=O)c1cccc(Cl)c1` (stereo not given) | -9.524% |
| `CN(C)CCO[C@H]1CN(Cc2ccoc2)[C@@H]2COC[C@H]12` | -8.571% |
| `O=C(c1cc(-c2ccco2)nc2c(Cl)cccc12)N1CCS(=O)(=O)CC1` | 15% |
| `Cc1noc(C)c1CN1CC[C@H]2OCC[C@@]2(C(=O)N(C)C)C1` | 11.93% |
| `CCOc1ccc(C(=O)NCc2ccnc(N3CCCC3)c2)cn1` | 14.29% |
| `O=S(=O)(NCC1(O)CCOc2ccccc21)c1ccccc1Br` (stereo not given) | 8.264% |
| `Cc1nn(C)c(C)c1C1CCCN1c1ncnc2[nH]ccc12` (stereo not given) | 25.86% |
| `COc1ccccc1C(C#N)NC(=O)c1cccc2c1oc(=O)n2C` (stereo not given) | -1.493% |
| `c1ccc(-c2nc3c(c(NCc4n[nH]c5c4CCC5)n2)CCNC3)cc1` | 29.41% |
| `COc1cccc(/C=C/CCN2CCN(S(C)(=O)=O)CC2)c1` | 11.67% |
| `CS(=O)(=O)c1ccccc1C(=O)NCC1Cc2ccccc2O1` (stereo not given) | 15.38% |
| `CCc1cnc(N2C[C@H]3CN(Cc4ccc(OC)cc4)C(=O)[C@H]3C2)nc1` | 14.53% |

Some entries from above, unchanged:

- O=C(NCc1ccccn1)[C@@H]1COC[C@H]2CN(C3CCC3)C[C@H]21 | 18%
- CCc1nnc2n1CCN(Cc1nnc(-c3occc3C)o1)C2 | 10.34%
- CCn1c(CN(C)CC(=O)N(C)C)nc2c(F)cccc21 | 7.018%
- c1cnnc(NCC2CN(CCN3CCCCC3)CCO2)c1 (stereo not given) | 8.219%
- Cc1cccc(C)c1NC(=O)CCNC(=O)c1ccoc1 | 18.67%

Measurements from “University of Dundee, Small-Polar-MMV Screening Library” (2021), ChEMBL document CHEMBL3988442.